Assay [1] concerns the target T1, fructose-1,6-bisphosphatase 1 (FBP1), endogenous (human (endogenous in MIA PaCa-2 and Capan-1)) (UniProt P09467).
T1 sequence: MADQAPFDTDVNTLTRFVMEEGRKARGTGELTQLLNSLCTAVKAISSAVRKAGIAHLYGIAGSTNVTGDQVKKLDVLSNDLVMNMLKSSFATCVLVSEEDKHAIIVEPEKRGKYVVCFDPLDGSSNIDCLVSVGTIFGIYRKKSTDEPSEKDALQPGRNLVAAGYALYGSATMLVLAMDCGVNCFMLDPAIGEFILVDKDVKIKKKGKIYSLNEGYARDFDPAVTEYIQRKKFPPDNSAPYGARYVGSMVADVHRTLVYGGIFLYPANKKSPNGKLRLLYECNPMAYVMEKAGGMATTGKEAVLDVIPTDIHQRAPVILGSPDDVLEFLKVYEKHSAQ
The experiment in a line: co-IP; endogenous proteins of MIA PaCa-2 and Capan-1 cells, RIPA lysis; IP with FBP1 and DNMT1 antibodies, or with FBP1 and USP7 antibodies, respectively.

Amino acid sequences for entries named in this document (tags omitted).
UniProt P26358: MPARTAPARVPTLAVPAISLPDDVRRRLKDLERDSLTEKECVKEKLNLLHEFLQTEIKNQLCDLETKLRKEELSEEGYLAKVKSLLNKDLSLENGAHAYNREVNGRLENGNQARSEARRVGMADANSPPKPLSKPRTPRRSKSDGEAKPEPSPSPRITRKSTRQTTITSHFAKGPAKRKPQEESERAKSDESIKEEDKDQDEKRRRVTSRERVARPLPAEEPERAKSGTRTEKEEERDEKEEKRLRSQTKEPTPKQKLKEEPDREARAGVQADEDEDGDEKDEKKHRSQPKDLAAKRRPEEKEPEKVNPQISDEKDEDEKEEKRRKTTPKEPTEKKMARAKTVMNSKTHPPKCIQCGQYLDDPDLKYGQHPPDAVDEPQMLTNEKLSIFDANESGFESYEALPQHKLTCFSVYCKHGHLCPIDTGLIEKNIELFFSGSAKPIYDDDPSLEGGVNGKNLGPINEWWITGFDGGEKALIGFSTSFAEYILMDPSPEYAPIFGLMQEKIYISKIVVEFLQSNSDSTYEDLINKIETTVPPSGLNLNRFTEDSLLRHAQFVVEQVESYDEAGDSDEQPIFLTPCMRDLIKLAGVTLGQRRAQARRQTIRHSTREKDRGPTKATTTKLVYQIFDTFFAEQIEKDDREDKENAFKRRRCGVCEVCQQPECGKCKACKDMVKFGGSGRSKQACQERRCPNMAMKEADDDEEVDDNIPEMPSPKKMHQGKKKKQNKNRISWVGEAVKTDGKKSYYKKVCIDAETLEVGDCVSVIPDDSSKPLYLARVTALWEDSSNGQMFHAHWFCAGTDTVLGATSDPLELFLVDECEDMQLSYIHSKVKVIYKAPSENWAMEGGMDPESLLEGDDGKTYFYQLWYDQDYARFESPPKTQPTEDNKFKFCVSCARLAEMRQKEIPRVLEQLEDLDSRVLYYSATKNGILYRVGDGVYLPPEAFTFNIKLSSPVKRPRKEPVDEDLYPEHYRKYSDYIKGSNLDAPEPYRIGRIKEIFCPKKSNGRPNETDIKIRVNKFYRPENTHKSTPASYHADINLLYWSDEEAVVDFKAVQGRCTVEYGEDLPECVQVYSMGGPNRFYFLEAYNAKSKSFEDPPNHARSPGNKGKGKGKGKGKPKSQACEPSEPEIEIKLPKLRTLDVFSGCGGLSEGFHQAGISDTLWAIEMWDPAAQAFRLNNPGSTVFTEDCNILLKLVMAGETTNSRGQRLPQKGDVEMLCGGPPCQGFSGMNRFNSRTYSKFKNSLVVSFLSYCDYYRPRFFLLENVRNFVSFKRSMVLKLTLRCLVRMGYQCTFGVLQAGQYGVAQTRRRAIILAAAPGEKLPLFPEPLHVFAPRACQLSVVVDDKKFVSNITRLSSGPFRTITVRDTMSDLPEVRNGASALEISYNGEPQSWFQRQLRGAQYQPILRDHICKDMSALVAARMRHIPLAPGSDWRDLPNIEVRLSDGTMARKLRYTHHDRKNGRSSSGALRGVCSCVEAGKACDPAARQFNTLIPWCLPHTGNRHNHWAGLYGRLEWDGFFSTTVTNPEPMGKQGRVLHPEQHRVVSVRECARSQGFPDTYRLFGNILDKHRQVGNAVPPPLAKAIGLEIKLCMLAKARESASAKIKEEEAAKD
UniProt Q93009: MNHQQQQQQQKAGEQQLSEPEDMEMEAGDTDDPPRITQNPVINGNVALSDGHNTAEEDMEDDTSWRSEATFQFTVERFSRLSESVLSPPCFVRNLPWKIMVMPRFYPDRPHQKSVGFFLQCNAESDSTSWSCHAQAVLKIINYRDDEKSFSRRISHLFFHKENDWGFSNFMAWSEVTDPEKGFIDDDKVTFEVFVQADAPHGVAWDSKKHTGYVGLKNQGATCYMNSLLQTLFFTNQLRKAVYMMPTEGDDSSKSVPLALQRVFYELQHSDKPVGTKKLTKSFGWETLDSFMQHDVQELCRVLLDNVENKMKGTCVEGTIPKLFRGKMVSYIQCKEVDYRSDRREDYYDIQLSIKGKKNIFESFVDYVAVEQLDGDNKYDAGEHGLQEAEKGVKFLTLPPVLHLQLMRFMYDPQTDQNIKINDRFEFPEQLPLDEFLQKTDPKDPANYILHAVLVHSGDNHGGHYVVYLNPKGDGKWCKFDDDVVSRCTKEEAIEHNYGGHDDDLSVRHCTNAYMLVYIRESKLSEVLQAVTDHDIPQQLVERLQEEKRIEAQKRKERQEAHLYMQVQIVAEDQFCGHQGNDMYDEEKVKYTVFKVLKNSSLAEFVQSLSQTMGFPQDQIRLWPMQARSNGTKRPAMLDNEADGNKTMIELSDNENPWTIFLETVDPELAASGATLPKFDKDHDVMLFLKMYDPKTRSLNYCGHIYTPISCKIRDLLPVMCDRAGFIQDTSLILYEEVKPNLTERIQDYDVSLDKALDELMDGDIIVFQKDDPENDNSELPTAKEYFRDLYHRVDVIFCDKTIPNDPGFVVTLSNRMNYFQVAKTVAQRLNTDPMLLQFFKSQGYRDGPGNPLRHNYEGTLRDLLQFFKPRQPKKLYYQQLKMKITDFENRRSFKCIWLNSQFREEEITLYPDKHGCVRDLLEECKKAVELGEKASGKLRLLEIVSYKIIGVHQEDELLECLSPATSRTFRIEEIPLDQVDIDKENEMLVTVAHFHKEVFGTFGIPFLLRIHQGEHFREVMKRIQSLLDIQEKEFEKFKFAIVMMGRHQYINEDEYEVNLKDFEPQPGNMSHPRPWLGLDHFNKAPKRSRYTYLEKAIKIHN
UniProt P09874: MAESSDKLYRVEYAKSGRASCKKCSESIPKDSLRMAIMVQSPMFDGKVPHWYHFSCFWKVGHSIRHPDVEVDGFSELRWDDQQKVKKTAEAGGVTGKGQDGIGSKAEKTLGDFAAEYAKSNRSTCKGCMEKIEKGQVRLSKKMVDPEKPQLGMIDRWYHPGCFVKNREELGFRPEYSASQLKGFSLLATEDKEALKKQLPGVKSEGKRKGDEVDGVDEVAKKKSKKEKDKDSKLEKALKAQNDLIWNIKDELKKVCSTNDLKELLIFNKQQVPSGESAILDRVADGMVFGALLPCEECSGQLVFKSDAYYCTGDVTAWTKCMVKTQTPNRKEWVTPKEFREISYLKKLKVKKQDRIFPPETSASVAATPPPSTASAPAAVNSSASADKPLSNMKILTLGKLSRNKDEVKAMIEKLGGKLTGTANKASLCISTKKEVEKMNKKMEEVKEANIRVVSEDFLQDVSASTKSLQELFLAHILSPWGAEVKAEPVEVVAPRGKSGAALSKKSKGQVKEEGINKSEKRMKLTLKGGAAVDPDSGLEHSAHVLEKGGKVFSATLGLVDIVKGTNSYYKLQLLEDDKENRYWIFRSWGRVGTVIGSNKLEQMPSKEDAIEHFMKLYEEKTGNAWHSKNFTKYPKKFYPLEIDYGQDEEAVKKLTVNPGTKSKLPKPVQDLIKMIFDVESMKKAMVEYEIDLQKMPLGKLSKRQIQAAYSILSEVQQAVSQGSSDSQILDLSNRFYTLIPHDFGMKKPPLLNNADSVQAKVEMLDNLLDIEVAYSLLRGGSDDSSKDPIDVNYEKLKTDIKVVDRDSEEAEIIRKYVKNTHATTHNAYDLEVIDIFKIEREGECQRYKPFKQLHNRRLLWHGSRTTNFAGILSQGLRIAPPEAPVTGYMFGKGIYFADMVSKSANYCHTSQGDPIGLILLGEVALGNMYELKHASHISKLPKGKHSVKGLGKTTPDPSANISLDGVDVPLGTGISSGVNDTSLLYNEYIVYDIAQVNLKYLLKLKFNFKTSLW

For assay [2], the target named is DNA (cytosine-5)-methyltransferase 1 (DNMT1), endogenous (human (endogenous in MIA PaCa-2 and Capan-1)) (UniProt P26358). The experiment in a line: co-IP; endogenous proteins of Capan-1 cells, IP with DNMT1 antibodies; cells with shFBP1, with overexpressed FBP1 WT, G260R or NES, with USP7 inhibitor (10 uM, 24 h) or with shUSP7.

These are yes or no findings as the source states them, for the method shown. In cells and extracts the contact can be indirect. Some binding calls cover weakened binding; strength is not graded here.

Take “ubiquitin carboxyl-terminal hydrolase 7 (USP7), endogenous (from UniProt Q93009 1-1102) (enzyme)”: the binding result in assay [1] is given as “binds”.
As to “Poly[ADP-ribose] polymerase 1 (PARP1), endogenous (from UniProt P09874 1-1014) (enzyme)”, the binding result in assay [2] was “binds”.

These data come from paper PMC8978517.
